# Laboratory results: PubChem BioAssay AID1332 (Southern Research Institute, 2008)
# The list shows a part of the results. Shown are side measurements of this screen, not its main read-out; they come without a call.
# Experiment: Mycobacterium tuberculosis H37Rv growth inhibition, confirmatory dose response, cytotoxicity (AID 1332);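 as to CC50: Vero cells exposed to compounds for 72 hours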;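 as to IC50: bacteria incubated 7 days before adding Alamar blue readout reagent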
# Settings: M. tuberculosis H37Rv growth inhibition; CC50: measured here: Vero cell cytotoxicity; IC50: measured here: IC50 H37Rv replicates
SMILES,IC50,CC50
NCC(CC(=O)O)c1ccc(Cl)cc1 (stereo not drawn),> 20 µg/mL,–
O=C1NCC2(CCN(CCc3ccccc3)CC2)O1,> 20 µg/mL,–
O=c1cccc2n1CC1CNC[C@H]2C1,> 20 µg/mL,–
O=C(c1ccc(F)cc1)C1CCN(CCn2c(=O)[nH]c3ccccc3c2=O)CC1,> 20 µg/mL,–
CCN(CC)C(=O)c1ccc(O)c(OC)c1,> 20 µg/mL,–
CCC1(c2ccccc2)C(=O)NCNC1=O,> 20 µg/mL,–
CC(C)[N+]1(C)[C@@H]2CC[C@@H]1CC(OC(=O)C(CO)c1ccccc1)C2 (stereo partly drawn),> 20 µg/mL,–
CN(C)CCC(c1ccc(Br)cc1)c1ccccn1 (stereo not drawn),> 20 µg/mL,–
COc1ccc2c(c1O)-c1c(OC)c(OC)cc3c1[C@H](C2)N(C)CC3,> 20 µg/mL,–
O=C1CC[C@@]2(O)[C@H]3Cc4ccc(O)c5c4[C@@]2(CCN3CC2CC2)[C@H]1O5,> 20 µg/mL,–
CN1CCN(CC(=O)N2c3ccccc3C(=O)Nc3cccnc32)CC1,> 20 µg/mL,–
CN(CCCCCCCCCCN(C)C(=O)Oc1cccc([N+](C)(C)C)c1)C(=O)Oc1cccc([N+](C)(C)C)c1,0.33 µg/mL,–
CC(=O)N(CC(O)CO)c1c(I)c(C(=O)NCC(O)CO)c(I)c(C(=O)NCC(O)CO)c1I (stereo not drawn),> 20 µg/mL,–
CC1=NS(=O)(=O)c2cc(Cl)ccc2N1,> 20 µg/mL,–
CC[C@H](CO)NCCN[C@H](CC)CO,0.131 µg/mL,–
C[C@@H]1CCC[C@H](C)N1NC(=O)c1ccc(Cl)c(S(N)(=O)=O)c1,> 20 µg/mL,–
Nc1ccc(S(=O)(=O)Nc2nccs2)cc1,0.653 µg/mL,–
CC(CNC1CCCCC1)OC(=O)c1ccccc1 (stereo not drawn),> 20 µg/mL,–
CCOC1O[C@H]([C@@H](COCc2ccccc2)OCc2ccccc2)[C@H](OCc2ccccc2)[C@H]1O (stereo partly drawn),> 20 µg/mL,–
CC(=O)Nc1c(I)c(C(=O)N[C@H]2C(O)O[C@H](CO)[C@@H](O)[C@@H]2O)c(I)c(N(C)C(C)=O)c1I (stereo partly drawn),> 20 µg/mL,–
CCN(CC)CCNC(=O)c1ccc(N)cc1,> 20 µg/mL,–

# Single entries from the results shown.
# IC50 with `CC1=NS(=O)(=O)c2cc(Cl)ccc2N1` reads > 20 µg/mL
# IC50 with `Nc1ccc(S(=O)(=O)Nc2nccs2)cc1` reads 0.653 µg/mL

# Going on with the list.

SMILES,IC50,CC50
CC(=O)c1cc2ccccc2oc1=O,> 20 µg/mL,–
CN1[C@@H]2CC(=O)C[C@H]1[C@H](O)C2,> 20 µg/mL,–
CCCCOc1cc(C(=O)OCCN(CC)CC)ccc1N,> 20 µg/mL,–
CC(=O)Nc1nnc(S(N)(=O)=O)s1,> 20 µg/mL,–
COc1cc(CNC(=O)CCCC/C=C/C(C)C)ccc1O,> 20 µg/mL,–
CO/N=C(\C(=O)N[C@@H]1C(=O)N2C(C(=O)O)=C(COC(C)=O)CS[C@H]12)c1csc(N)n1,> 20 µg/mL,–
CC(C(O)c1ccc(O)cc1)N1CCC(Cc2ccccc2)CC1 (stereo not drawn),> 20 µg/mL,–
CN(C(=O)CN(CCO)CC(=O)N(C)C(C)(C)Cc1ccccc1)C(C)(C)Cc1ccccc1,7.88 µg/mL,–
COc1cc(NS(=O)(=O)c2ccc(N)cc2)ncn1,2.42 µg/mL,–
CCCCC(CC)CN=C(N)NC(N)=NCCCCCCN=C(N)NC(N)=NCC(CC)CCCC (stereo not drawn),0.563 µg/mL,3.88 µg/mL
COc1ccc(Cl)cc1C(=O)NCCc1ccc(S(=O)(=O)NC(=O)NC2CCCCC2)cc1,> 20 µg/mL,–
CC#C[C@]1(O)CC[C@H]2[C@@H]3CCC4=CC(=O)CCC4=C3[C@@H](c3ccc(N(C)C)cc3)C[C@@]21C,> 20 µg/mL,–
CCN(CCCCOC(=O)c1ccc(OC)c(OC)c1)C(C)Cc1ccc(OC)cc1 (stereo not drawn),> 20 µg/mL,–
Cc1cc(C(C)(C)C)cc(C)c1CC1=NCCN1,> 20 µg/mL,–
CCN(CC)CCOCCOC(=O)C1(c2ccccc2)CCCC1,> 20 µg/mL,–
N[C@H]1CONC1=O,0.855 µg/mL,–
CCCCC1C(=O)N(c2ccccc2)N(c2ccc(O)cc2)C1=O (stereo not drawn),> 20 µg/mL,–
CO[C@H](C)C(O)(C(=O)OCC1=CCN2CC[C@H](O)[C@@H]12)C(C)C (stereo partly drawn),> 20 µg/mL,–
COc1cc2nc(N3CCN(C(=O)C4COc5ccccc5O4)CC3)nc(N)c2cc1OC (stereo not drawn),> 20 µg/mL,–
O=c1c(O)c(-c2ccc(O)cc2)oc2cc(O)cc(O)c12,> 20 µg/mL,–
CCCCCC[C@H]1C(=O)O[C@H](C)C(NC(=O)c2cccc(NC=O)c2O)C(=O)O[C@@H](C)[C@@H]1OC(=O)CC(C)C (stereo partly drawn),> 20 µg/mL,> 6 µg/mL

SMILES,IC50,CC50
C=CCOc1ccccc1OCC(O)CNC(C)C (stereo not drawn),> 20 µg/mL,–
NC[C@H]1O[C@H](O[C@H]2[C@H](O)[C@@H](O[C@H]3O[C@H](CO)[C@@H](O)[C@H](N)[C@H]3O)[C@H](N)C[C@@H]2N)[C@H](N)C[C@@H]1O,1.2 µg/mL,–
CC(C)NCC(O)COc1cccc2[nH]ccc12 (stereo not drawn),> 20 µg/mL,–
C[C@]12CCC(=O)C=C1C=C[C@@H]1[C@@H]2CC[C@@]2(C)[C@H]1CC[C@@]2(O)CCC(=O)O,> 20 µg/mL,–
OC(CCN1CCCC1)(c1ccccc1)C1CCCCC1 (stereo not drawn),> 20 µg/mL,–
CC(CN(C)C)CN1c2ccccc2CCc2ccccc21 (stereo not drawn),> 20 µg/mL,–
CC(=O)O[C@]1(C(C)=O)CC[C@H]2[C@@H]3C=C(Cl)C4=CC(=O)C5CC5[C@]4(C)[C@H]3CC[C@@]21C (stereo partly drawn),> 20 µg/mL,–
CC(C)(C)NC(=O)[C@H]1CC[C@H]2[C@@H]3CC[C@H]4NC(=O)C=C[C@]4(C)[C@H]3CC[C@]12C,> 20 µg/mL,–
Nc1nc(N)c2nc(-c3ccccc3)c(N)nc2n1,> 20 µg/mL,2.85 µg/mL
C=C1CC[C@H](O)C/C1=C/C=C1\CCC[C@]2(C)[C@@H]([C@H](C)/C=C/[C@H](C)C(C)C)CC[C@@H]12,> 20 µg/mL,–
CCCCOc1ccc(C(=O)CCN2CCCCC2)cc1,> 20 µg/mL,–
C(#CCN1CCCC1)CN1CCCC1,> 20 µg/mL,–
Cc1c(Nc2ncccc2C(=O)O)cccc1C(F)(F)F,> 20 µg/mL,–
C[C@H]1CC[C@]2(NC1)O[C@H]1C[C@H]3[C@@H]4CC[C@H]5C[C@@H](O)CC[C@]5(C)[C@H]4CC[C@]3(C)[C@H]1[C@@H]2C,> 20 µg/mL,–
C[C@H](CS)C(=O)N1CCC[C@H]1C(=O)O,> 20 µg/mL,–
CC1(C)O[C@@H]2C[C@H]3[C@@H]4C[C@H](F)C5=CC(=O)C=C[C@]5(C)[C@H]4[C@@H](O)C[C@]3(C)[C@]2(C(=O)CO)O1,> 20 µg/mL,–
CCCCc1oc2ccccc2c1C(=O)c1cc(I)c(OCCN(CC)CC)c(I)c1,5 µg/mL,> 6 µg/mL
CCN1CCCC1CNC(=O)c1cc(S(N)(=O)=O)ccc1OC (stereo not drawn),> 20 µg/mL,–
COP(=O)(OC)C(O)C(Cl)(Cl)Cl (stereo not drawn),> 20 µg/mL,–
CC[C@H]1C2C[C@H]3[C@@H]4N(C)c5ccccc5C45C[C@H](C2[C@H]5O)N3[C@@H]1O (stereo partly drawn),> 20 µg/mL,–
CC(=O)O[C@H]1C[C@H](O[C@H]2[C@@H](O)C[C@H](O[C@H]3[C@@H](O)C[C@H](O[C@H]4CC[C@@]5(C)[C@H](CC[C@]6(C)[C@]5(C)C[C@@H](O)[C@]5(C)[C@@H](C7=CC(=O)OC7)CC[C@@]56O)C4)O[C@@H]3C)O[C@@H]2C)O[C@H](C)[C@H]1O[C@@H]1O[C@H](CO)[C@@H](O)[C@H](O)[C@H]1O,> 20 µg/mL,0.654 µg/mL

# Entries shown so far that have an NH in an aromatic ring:
SMILES,IC50,CC50
O=C(c1ccc(F)cc1)C1CCN(CCn2c(=O)[nH]c3ccccc3c2=O)CC1,> 20 µg/mL,–
CC(C)NCC(O)COc1cccc2[nH]ccc12 (stereo not drawn),> 20 µg/mL,–
